Experimental data: PubChem BioAssay AID1224828 (NIAID, 2016)
Here is an unselected part of about 17,000 reagents tested. Over the whole deposit, 762 (4.5%) were called active. 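Active calls include both raised and lowered p65 entry, mostly lowered; wells with fewer than 50 cells lack a z-score.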 Raw values are not corrected between plates. Entries without a mark were called inactive.

- Aim: 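Regulators linking TLR4 signalling to p65 nuclear translocation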 (primary screen)
- System: mouse RAW264.7 G9 macrophage reporter cells (GFP-p65, Tnf promoter-mCherry)
- Reagent: siRNA pool against mouse genes, 100 nM
- Duration: 2 days siRNA transfection, then 40 min LPS before fixation
- Conditions: LPS (Salmonella minnesota R595) at 10 ng/ml
- Read-out: 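Microscopy ratio of nuclear to perinuclear-ring GFP-p65 signal, scaled to the plate median; gene score is the average of two replicate robust z-scores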
- Direction: p65 translocation robust z-score: higher = more nuclear NF-kappaB p65 after LPS than the plate median; nuclear/cytoplasmic p65 ratio: higher = more nuclear NF-kappaB p65
- Call rule: 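Active if robust z is above 3.3 (negative regulators) or below -1.56, the Tlr4 control median (positive regulators); activity score 50 or more; control wells not called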
- Calls: active = hit (p65 shift raised or lowered); inactive = no clear change

gene symbol | p65 translocation robust z-score | nuclear/cytoplasmic p65 ratio, rep 1 | nuclear/cytoplasmic p65 ratio, rep 2 | low cell count flag
Rbpj | 0.19 | 1.6 | 1.49 | enough cells to score
Arhgap33 | 0.11 | 1.44 | 1.24 | enough cells to score
Atp2a2 | 0.21 | 1.66 | 1.63 | enough cells to score
Mfap3l | – | 1.19 | 1.33 | fewer than 50 cells per well; well left out of scoring
Fsd2 | 0.45 | 1.46 | 1.64 | enough cells to score
Stim1 | -0.9 | 1.18 | 1.13 | enough cells to score
Eif4a1 | – | 1.63 | 1.4 | fewer than 50 cells per well; well left out of scoring
Cyp2d34 | 1.93 | 1.98 | 1.86 | enough cells to score
Usp11 | -0.19 | 1.51 | 1.46 | enough cells to score
Raver2 | – | 1.31 | 1.23 | fewer than 50 cells per well; well left out of scoring
Krt31 | 0.94 | 1.79 | 1.46 | enough cells to score
Ddx24 | 1.74 | 1.66 | 1.96 | enough cells to score
Fam162a | 0.33 | 1.38 | 1.37 | enough cells to score
Or7a35 | – | 1.51 | 1.45 | fewer than 50 cells per well; well left out of scoring
Wnt5a | 0.39 | 1.58 | 1.55 | enough cells to score
Snap91 | – | 1.55 | 1.22 | fewer than 50 cells per well; well left out of scoring
Ripk4 | -0.21 | 1.51 | 1.36 | enough cells to score
Or2h2 | 0.64 | 1.55 | 1.73 | enough cells to score
Slc13a4 | -0.72 | 1.2 | 1.17 | enough cells to score
Itln1 | – | 1.12 | 0.967 | fewer than 50 cells per well; well left out of scoring
A730089K16Rik | 1.31 | 1.66 | 1.71 | enough cells to score
Entpd3 | 0.53 | 1.79 | 1.42 | enough cells to score
Mfrp | 1.07 | 1.76 | 1.81 | enough cells to score
Slc40a1 | -0.29 | 1.47 | 1.54 | enough cells to score
Nob1 | -0.51 | 1.4 | 1.35 | enough cells to score
Mras | 0.89 | 1.56 | 1.46 | enough cells to score
Bag6 | 1.54 | 1.87 | 2.04 | enough cells to score
Lpcat1 | -0.9 | 1.46 | 1.5 | enough cells to score
Glb1 | -0.7 | 1.33 | 1.29 | enough cells to score
Trim34a | 1.59 | 1.62 | 1.32 | enough cells to score
Matn2 | -1.21 | 1.52 | 1.37 | enough cells to score
Acyp2 | 0.07 | 1.57 | 1.68 | enough cells to score
Srd5a1 | 0.26 | 1.54 | 1.64 | enough cells to score
B230325K18Rik | -0.36 | 1.56 | 1.45 | enough cells to score
Phpt1 | -0.73 | 1.37 | 1.34 | enough cells to score
Cyb5r3 | 0.71 | 1.59 | 1.45 | enough cells to score
Saa1 | -0.5 | 1.43 | 1.54 | enough cells to score
Mtfmt | – | 1.57 | 1.47 | fewer than 50 cells per well; well left out of scoring
Ccdc90b | – | 1.52 | 1.39 | fewer than 50 cells per well; well left out of scoring
Hebp1 | 0.18 | 1.69 | 1.55 | enough cells to score

Targets listed so far whose target name begins with B or b (2):
gene symbol | p65 translocation robust z-score | nuclear/cytoplasmic p65 ratio, rep 1 | nuclear/cytoplasmic p65 ratio, rep 2 | low cell count flag
Bag6 | 1.54 | 1.87 | 2.04 | enough cells to score
B230325K18Rik | -0.36 | 1.56 | 1.45 | enough cells to score
